Source: doi:10.1101/2022.10.14.512051
These are yes or no findings as the source states them, for the method shown. Binding seen in cells or lysates may run through a third protein. Some binding calls cover weakened binding; strength is not graded here. For some assays here: Where a sequence is shown, tags or fusion partners need not be part of it.

Protein sequences, listed by entry. Tags and fused reporters are not part of them. Lines headed by an entry give the natural chain unless they say otherwise; changes in a name come on top.
UniProt Q13620, whole entry: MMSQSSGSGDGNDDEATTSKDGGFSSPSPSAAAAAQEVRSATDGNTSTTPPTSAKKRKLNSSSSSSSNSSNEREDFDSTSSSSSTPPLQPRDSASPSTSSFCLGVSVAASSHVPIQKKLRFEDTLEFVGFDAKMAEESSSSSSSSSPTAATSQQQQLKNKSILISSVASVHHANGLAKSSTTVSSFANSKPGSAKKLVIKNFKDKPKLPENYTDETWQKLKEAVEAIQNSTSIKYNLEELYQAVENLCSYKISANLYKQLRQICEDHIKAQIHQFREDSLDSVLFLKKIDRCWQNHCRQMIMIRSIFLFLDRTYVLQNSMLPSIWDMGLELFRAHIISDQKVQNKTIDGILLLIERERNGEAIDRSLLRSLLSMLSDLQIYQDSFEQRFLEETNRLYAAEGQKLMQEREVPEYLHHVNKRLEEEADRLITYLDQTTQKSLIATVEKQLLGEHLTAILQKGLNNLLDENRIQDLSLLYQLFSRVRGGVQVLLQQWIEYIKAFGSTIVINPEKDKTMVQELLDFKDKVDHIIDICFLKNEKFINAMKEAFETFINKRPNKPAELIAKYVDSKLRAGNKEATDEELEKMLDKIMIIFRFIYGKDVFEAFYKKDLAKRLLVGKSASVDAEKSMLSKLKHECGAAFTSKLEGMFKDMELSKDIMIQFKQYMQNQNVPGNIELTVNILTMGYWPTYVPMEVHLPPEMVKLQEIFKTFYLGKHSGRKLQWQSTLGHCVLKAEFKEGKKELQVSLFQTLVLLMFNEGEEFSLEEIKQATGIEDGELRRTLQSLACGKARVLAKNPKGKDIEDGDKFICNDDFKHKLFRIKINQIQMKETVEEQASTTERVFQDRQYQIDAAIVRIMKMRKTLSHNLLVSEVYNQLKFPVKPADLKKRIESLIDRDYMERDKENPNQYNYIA
UniProt Q5TAQ9, whole entry: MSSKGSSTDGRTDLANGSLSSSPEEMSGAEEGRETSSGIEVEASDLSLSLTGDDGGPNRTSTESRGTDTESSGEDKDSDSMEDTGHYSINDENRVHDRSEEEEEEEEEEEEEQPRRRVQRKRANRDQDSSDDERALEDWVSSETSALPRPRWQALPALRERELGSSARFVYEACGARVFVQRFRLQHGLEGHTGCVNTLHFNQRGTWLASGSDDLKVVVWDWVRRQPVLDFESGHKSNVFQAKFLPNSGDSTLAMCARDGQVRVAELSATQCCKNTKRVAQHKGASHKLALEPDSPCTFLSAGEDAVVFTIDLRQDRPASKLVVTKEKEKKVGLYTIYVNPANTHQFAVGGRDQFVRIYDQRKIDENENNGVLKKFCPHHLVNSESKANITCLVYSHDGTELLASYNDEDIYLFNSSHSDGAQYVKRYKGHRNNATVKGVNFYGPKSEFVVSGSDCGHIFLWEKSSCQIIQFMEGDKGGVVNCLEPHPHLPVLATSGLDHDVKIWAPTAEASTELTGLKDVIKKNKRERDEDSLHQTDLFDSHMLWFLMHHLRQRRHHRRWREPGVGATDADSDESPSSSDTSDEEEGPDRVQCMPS
UniProt Q14203, whole entry: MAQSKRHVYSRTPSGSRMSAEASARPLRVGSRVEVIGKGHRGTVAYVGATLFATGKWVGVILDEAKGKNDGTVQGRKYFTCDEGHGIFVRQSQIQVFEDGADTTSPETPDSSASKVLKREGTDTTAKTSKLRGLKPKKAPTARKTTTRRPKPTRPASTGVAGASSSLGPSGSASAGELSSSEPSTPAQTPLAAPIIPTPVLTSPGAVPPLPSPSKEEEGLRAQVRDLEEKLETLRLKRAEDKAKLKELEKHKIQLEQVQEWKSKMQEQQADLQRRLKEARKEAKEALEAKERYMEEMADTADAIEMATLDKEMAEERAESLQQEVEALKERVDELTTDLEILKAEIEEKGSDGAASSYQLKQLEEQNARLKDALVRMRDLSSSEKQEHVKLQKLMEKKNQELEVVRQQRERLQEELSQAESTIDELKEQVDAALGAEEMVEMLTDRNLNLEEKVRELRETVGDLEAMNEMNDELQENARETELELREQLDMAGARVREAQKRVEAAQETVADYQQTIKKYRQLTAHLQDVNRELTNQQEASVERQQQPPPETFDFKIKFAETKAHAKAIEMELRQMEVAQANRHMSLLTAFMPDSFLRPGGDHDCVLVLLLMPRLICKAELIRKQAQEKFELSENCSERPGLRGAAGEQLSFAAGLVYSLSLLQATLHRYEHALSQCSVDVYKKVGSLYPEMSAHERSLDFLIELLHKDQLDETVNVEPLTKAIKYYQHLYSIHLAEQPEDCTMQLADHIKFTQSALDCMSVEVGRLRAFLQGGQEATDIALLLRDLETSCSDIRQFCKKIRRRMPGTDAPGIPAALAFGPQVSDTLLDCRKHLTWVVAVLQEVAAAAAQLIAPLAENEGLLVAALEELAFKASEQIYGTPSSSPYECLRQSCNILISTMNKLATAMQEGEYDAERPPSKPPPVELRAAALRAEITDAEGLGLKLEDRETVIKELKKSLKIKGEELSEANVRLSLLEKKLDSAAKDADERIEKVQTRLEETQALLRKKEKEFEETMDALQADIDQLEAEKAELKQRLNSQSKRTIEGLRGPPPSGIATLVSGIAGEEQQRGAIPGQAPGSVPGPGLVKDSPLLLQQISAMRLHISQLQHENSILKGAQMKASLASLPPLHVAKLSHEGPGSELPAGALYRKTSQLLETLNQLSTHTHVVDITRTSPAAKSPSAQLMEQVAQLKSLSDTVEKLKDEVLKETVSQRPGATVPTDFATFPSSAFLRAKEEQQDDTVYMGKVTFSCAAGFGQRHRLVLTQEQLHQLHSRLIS
UniProt Q16531, whole entry: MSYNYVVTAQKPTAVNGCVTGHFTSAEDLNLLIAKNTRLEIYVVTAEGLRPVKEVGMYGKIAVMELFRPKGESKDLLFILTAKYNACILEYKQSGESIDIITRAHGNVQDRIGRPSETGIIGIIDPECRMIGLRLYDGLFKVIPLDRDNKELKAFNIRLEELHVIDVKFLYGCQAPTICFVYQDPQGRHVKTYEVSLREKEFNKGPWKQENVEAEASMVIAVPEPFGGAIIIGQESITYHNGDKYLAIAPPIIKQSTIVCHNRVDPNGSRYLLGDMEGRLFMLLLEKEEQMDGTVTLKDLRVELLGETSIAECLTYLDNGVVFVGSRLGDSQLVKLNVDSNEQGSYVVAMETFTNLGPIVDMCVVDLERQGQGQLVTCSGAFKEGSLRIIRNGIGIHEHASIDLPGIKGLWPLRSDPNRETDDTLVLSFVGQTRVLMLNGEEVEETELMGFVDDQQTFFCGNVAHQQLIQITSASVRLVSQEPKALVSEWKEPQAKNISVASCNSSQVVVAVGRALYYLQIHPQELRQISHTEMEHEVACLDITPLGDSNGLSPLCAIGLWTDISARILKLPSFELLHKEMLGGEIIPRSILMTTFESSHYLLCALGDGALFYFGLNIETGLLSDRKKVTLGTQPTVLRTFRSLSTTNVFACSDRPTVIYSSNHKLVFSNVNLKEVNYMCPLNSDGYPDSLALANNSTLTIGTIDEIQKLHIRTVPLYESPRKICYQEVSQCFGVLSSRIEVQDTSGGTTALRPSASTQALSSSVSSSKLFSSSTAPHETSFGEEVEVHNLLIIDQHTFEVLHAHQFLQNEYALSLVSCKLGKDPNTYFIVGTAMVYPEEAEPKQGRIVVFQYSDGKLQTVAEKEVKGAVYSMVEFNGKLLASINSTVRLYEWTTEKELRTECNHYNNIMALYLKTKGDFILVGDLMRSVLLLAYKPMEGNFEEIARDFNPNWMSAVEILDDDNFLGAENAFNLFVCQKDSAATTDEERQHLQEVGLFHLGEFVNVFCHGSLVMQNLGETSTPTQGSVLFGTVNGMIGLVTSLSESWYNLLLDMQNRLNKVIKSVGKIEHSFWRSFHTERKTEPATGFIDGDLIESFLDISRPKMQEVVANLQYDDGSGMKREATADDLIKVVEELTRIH

Columns and labels:
[1] = target: HA-tagged CUL4B, wild type (endogenously tagged) (human (endogenous in HeLa Kyoto)) (UniProt Q13620); test: co-IP
[2] = target: HA-tagged CUL4B P50L mutant (endogenously tagged) (human (endogenous in HeLa Kyoto)) (UniProt Q13620); test: co-IP
[3] = target: T1, FLAG-tagged WDR1 (Sf9 co-expression) (human) (UniProt O75083); test: pull-down
T1 sequence: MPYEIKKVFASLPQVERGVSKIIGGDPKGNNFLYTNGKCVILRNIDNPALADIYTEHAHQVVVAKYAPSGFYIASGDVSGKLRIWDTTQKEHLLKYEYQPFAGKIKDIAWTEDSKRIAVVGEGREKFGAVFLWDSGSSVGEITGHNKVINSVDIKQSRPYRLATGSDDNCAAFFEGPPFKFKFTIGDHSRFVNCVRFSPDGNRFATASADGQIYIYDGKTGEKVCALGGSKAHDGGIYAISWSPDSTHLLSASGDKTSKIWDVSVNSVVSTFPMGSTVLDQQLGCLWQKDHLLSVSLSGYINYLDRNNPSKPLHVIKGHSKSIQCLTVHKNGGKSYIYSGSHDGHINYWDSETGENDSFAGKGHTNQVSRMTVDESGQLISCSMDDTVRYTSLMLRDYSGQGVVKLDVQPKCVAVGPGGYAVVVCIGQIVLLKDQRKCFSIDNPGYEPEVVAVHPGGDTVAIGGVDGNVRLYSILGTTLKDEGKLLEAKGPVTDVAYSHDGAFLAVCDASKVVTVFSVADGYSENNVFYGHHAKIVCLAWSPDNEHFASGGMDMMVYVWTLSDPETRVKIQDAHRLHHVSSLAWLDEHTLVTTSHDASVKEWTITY

[4] = target: Strep-DCAF8 (Sf9 co-expression) (UniProt Q5TAQ9); test: pull-down

| binding [1] | binding [2] | Substance | binding [3] | binding [4] |
| --- | --- | --- | --- | --- |
| binds | – | DCTN1 (dynactin, endogenous) (from UniProt Q14203 1-1278) | – | – |
| binds | binds | DDB1 (endogenous) (from UniProt Q16531 1-1140) | – | – |
| – | – | His-DDB1 (recombinant) (from UniProt Q16531 1-1140) | binds | binds |
